# Measured values published in US20060057669A1, “Inactive transcription factor tif-ia and uses thereof” (priority 2002, published 2006).
# Test system: TIF-IA
# Experiment: Two-dimensional tryptic phosphopeptide mapping of TIF-IA labeled in vivo in HEK293T cells
# Format: cell-based, human
# Details: S635 mutants
# Experimental: HEK293T cells were transfected with pcDNA3.1-FLAG-TIF-IA, starved for 12 hr and labeled for 4 hr with [^32P]orthophosphate. 30 min before harvesting, 10% dialyzed FCS was added and cells were incubated in the absence (left panel) or presence of 40 μM PD98059 (right panel). Immunopurified TIF-IA was subjected to two-dimensional phosphopeptide mapping.
# (B) Tryptic peptide maps of TIF-IA phosphorylated in vivo. FLAG-tagged wild-type TIF-IA, TIF-IAS633A and TIF-IAS649A were expressed in HEK293T cells and labeled with [^32P]orthophosphate for 4 hr. TIF-IA was purified by immunoprecipitation and digested with trypsin. Phosphopeptides were separated on cellulose thin-layer plates and visualized by autoradiography. The sequence of the C-terminus of human TIF-IA (H.s.) and an alignment with the corresponding sequences from mouse (M.m.), Drosophila melanogaster (D.m.) and Saccharomyces pombe (S.p.) is shown above.
# (A) Two-dimensional tryptic phosphopeptide maps of TIF-IA. HEK293T cells were transfected with FLAG-tagged TIF-IA and labeled for 2 hr with [^32P]orthophosphate in the absence (left) or presence (right) of 20 nM rapamycin. TIF-IA was immunopurified, digested with trypsin, separated on cellulose thin-layer plates and visualized by autoradiography.
# (B) Tryptic phosphopeptide map of TIF-IAS44A phosphorylated in vivo. FLAG-tagged wild-type TIF-IA and TIF-IAS44A were expressed in HEK293T cells and labeled for 2 hr with [^32P]orthophosphate. TIF-IA was immunopurified, digested with trypsin, separated on cellulose thin-layer plates and visualized by autoradiography.
# 4×10^6 HEK293T cells overexpressing FLAG-tagged TIF-IA were cultured in DMEM/0.1% FCS for 12 hr, then for 30 min in phosphate-free DMEM with 0.1% dialyzed FCS, before labeling with 0.5 mCi/ml [^32P]orthophosphate for 4 hr. For mitogenic stimulation, 10% dialyzed FCS was added 30 min before harvesting. Cells were lysed in modified RIPA buffer (20 mM Tris-HCl [pH 7.4], 200 mM NaCl, 2 mM EDTA, 2 mM EGTA, 1% Triton X-100, 0.1% SDS, 10 mM a-glycerophosphate, 10 mM KH2PO4, 1 mM Na3VO4, 0.5 mM PMSF, 1 μg/ml aprotinin, 5 μg/ml leupeptin, and 1 gg/ml pepstatin A). TIF-IA was immunoprecipitated, separated by SDS-PAGE, transferred to nitrocellulose and visualized by autoradiography. For tryptic phosphopeptide mapping, labeled TIF-IA was digested overnight at 37° C. with 5 μg trypsin (sequencing grade, Promega Corp., Madison, USA) in 50 mM ammonium bicarbonate. After lyophilisation, the peptides were resolved on cellulose thin-layer plates by electrophoresis for 25 min at 1000 V in 1% (w/v) ammonium carbonate (pH 8.9), followed by ascending chromatography in a buffer containing 62.5% isobutyric acid, 1.9% n-butanol, 4.8% pyridine and 2.9% acetic acid.
# To identify the amino acids that are phosphorylated by ERK-dependent pathways, serum-starved cells were metabolically labeled with [^32P]orthophosphate, then stimulated with serum in the absence or presence of PD98059, and immunopurified TIF-IA was subjected to two-dimensional tryptic phosphopeptide mapping. Consistent with its role in sensing a variety of external signals, TIF-IA was phosphorylated at multiple sites. In serum-stimulated cells 10 peptides were phosphorylated (FIG. 3C, left panel). In the presence of PD98059, labeling of spots d, f and g, was impaired (FIG. 3C, right panel). In addition, phosphorylation of spots b and c was reduced. Thus, ERK-dependent kinases directly or indirectly phosphorylate TIF-IA at several sites.
# An important prediction of TIF-IA activity being regulated by rapamycin-sensitive signaling pathways is that the phosphorylation pattern of TIF-IA is different in untreated and rapamycin-treated cells. To test this prediction, the tryptic phosphopeptide pattern of TIF-IA derived from exponentially growing and rapamycin-treated cells was compared. […]
row,Substance,in vivo phosphorylation of S633 and S649
1,"TIF-IAS635A: TIF-IA point mutant, serine 635 replaced by alanine",both sites are phosphorylated
2,TIF-IAS635D: TIF-IA with single-residue substitution at S635 by aspartic acid,prevents in vivo phosphorylation of S633 and S649

# Same assay, conditions: labeled in vivo with [32P]orthophosphate
row,Substance,tryptic phosphopeptide pattern of mutant compared with wild-type TIF-IA
1,TIF-IA1-632: a mutant lacking the C-terminal amino acids 633-651,"phosphopeptides c, d, f and g were absent"
2,"TIF-IAS44A: TIF-IA mutant, S44 mutated to alanine",phosphopeptides b and b′ were lacking
3,"TIF-IAS633A: TIF-IA point mutant, serine 633 replaced by alanine","lacks two phosphopeptides, i.e., spots f and g"
4,"TIF-IAS649A: TIF-IA point mutant, serine residue at position 649 replaced by an alanine residue","spots d, f and g, were absent"

# Test system: cellular localization of TIF-IA
# Experiment: Immunofluorescence of FLAG-tagged TIF-IA in U-20S cells
# Format: cell-based
# Details: 20 nM rapamycin, 2 hr
row,Substance,localization of the TIF-IA form after rapamycin treatment
1,"TIF-IA: wild-type human transcription initiation factor TIF-IA, accession No. AJ272050",Rapamycin-dependent translocation was observed
2,TIF-IAS199A: the mutant in which S199 was changed to alanine,retained in the nucleoplasm
3,"TIF-IAS199D: TIF-IA mutant, replacement of S199 by aspartic acid",Rapamycin-dependent translocation was observed
